# Data from PMC9302439.
# Construct, isoform or probe ends are uncertain for at least one entry. A negative result means that nothing was seen under these conditions.
# Test system: HbERF6 (Hordeum brevisubulatum)
# Test: EMSA
# Conditions: LightShift EMSA kit 1x binding buffer, 20 ul, 1 ul poly(dI-dC), 4 ug protein, room temperature, 20 min; salt and pH not stated; recombinant protein; protein details: His (pET30a); label: 3' biotin
row,Sequence,binding result
1,AACGGAACCACTTCTCAACGGAACCACTTCTCAACGGAACCACTTCTC (double strand) [mutant GCC-box-2 probe],no binding
2,AACGGAGCCGCCTCTCAACGGAGCCGCCTCTCAACGGAGCCGCCTCTC (double strand) [pHbCIPK2 GCC-box-2 probe],binds
3,AGGGTAACCACTCCAGAGGGTAACCACTCCAGAGGGTAACCACTCCAG (double strand) [mutant GCC-box-1 probe],no binding
4,AGGGTAGCCGCCCCAGAGGGTAGCCGCCCCAGAGGGTAGCCGCCCCAG (double strand) [pHbCIPK2 GCC-box-1 probe],binds
